# Out of some 53,000 sequences screened, about 3,700 (7%) were called active.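 How the source made its calls: active means gene knockdowns whose robust z-score for IL-1 alpha signal is at least 2 or at most -2, so actives lie on both sides; inactive means the rest.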 The list shows a part of the results.
# Test: Components of the Cytosolic LPS Sensing Pathway: Gene Identification via Genome-wide siRNA Screen;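 further: robust z of the log signal after scaling to non-targeting control siRNA wells of the plate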
# Conditions: RAW264.7 macrophages, IL-1a HTRF, actives lie on both sides, screened at 100 nM (by protocol), cells primed 5 h with Pam3CSK4 first
# Summary of the method: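 Mouse macrophage line RAW264.7 is transfected with siRNA (100 nM final), grown 48h, primed with TLR ligand Pam3CSK4 5 h and given intracellular LipidA 24 h. IL-1a in supernatant is read by HTRF and viability by luminescence.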
row,Sequence,z-score
1,GGCCAUUGUUCAGGUGUUUTT against Atp6v1b1,inactive: 1.95
2,GCCAGCUACGUUUACGACUTT against Brms1,inactive: -0.252
3,GGUGGUUUCAACAAGUUCCTT against Dusp7,inactive: 0.765
4,GGAUUGAAACAGAUGAGAGTT against Gtf2e1,inactive: 0.833
5,GCCAGUCGUAACAUAUUCUTT against Pikfyve,inactive: 0.0828
6,GCCAAUCACAUUCCCAUGCTT against Umps,inactive: -0.418
7,GGUUUCUUCCACAGGACCUTT against Ddx59,inactive: 0.235
8,CCAGUCCGAUGUUUGUUAUTT against Zcchc13,inactive: -0.609
9,GGGUGUGUGCUAAUGAACUTT against Hnf1b,inactive: 0.421
10,CGGUUCUAGUUGAAAUUGUTT against Pcdha3,inactive: -0.264
11,GGCUUUAUGUAAGCAGAAGTT against Olfr948,inactive: -0.687
12,GGCAAAGAUCUUAUGGAGATT against Csf3r,inactive: 0.0079
13,GCCUGAUCCCAAUCGUGUATT against Smr2,inactive: 0.288
14,GGACGAUGAGAGCAAUGACTT against Klk1b11,inactive: 1.07
15,GGCAAUUGAUAUGGUUCAGTT against Magea9-ps,inactive: -1.22
16,CCUACAGUCAAGCAGAGCCTT against Klri1,inactive: -0.241
17,GGAGAAAAUUCAAGUCACCTT against Olfr663,inactive: 0.215
18,CGUUCUAGUGACAUGUACATT against Sh2d3c,inactive: 1.85
19,GGAGGCAUACAUGACAAAATT against Cop1,inactive: 0.953
20,GGGACUUUAUAAAGAACUGTT against Ranbp1,inactive: 1.34
21,GGACACUCUUCCAAAUACATT against Plb1,inactive: 1.67
22,GGGAAUCCUCAAAUAAAGCTT against Tbc1d10c,inactive: -0.146
23,GCCGUGUCCUUGCAUAACUTT against Lypd4,inactive: -0.523
24,GCUCAAAUUGCACUAUCUATT against Gpt2,inactive: -0.463
25,CCUCCACUCACUUGUGACUTT against Slc35a4,inactive: -0.0839
26,CCUGAAUUACCUCAUAUAUTT against Stat5b,inactive: 0.113
27,GGAUUUCUGGAACCUUCAUTT against Caskin2,inactive: -1.43
28,GGCGAGACCAUCCAUAUGUTT against Dusp19,inactive: -1.55
29,GCUGGCUGUUGGAUAAGUGTT against Olfr1112,active: 2.45

# In a second layout: entries from further up
row	Sequence	z-score
10	CGGUUCUAGUUGAAAUUGUTT against Pcdha3	inactive: -0.264
11	GGCUUUAUGUAAGCAGAAGTT against Olfr948	inactive: -0.687
